Results are given in words; binding and its absence hold for the method and conditions named. Binding seen in cells or lysates may run through a third protein. These calls come from enrichment with a bait or labelling near it, and not all partners need be listed. For some of these results: No binding means not detected with the bait. For some of these results: Tags and fused reporters may be left off the sequences shown.

Protein sequences, listed by entry. Tags and fused reporters are not part of them. Lines headed by an entry give the natural chain unless they say otherwise; changes in a name come on top.
UniProt Q9ESK9: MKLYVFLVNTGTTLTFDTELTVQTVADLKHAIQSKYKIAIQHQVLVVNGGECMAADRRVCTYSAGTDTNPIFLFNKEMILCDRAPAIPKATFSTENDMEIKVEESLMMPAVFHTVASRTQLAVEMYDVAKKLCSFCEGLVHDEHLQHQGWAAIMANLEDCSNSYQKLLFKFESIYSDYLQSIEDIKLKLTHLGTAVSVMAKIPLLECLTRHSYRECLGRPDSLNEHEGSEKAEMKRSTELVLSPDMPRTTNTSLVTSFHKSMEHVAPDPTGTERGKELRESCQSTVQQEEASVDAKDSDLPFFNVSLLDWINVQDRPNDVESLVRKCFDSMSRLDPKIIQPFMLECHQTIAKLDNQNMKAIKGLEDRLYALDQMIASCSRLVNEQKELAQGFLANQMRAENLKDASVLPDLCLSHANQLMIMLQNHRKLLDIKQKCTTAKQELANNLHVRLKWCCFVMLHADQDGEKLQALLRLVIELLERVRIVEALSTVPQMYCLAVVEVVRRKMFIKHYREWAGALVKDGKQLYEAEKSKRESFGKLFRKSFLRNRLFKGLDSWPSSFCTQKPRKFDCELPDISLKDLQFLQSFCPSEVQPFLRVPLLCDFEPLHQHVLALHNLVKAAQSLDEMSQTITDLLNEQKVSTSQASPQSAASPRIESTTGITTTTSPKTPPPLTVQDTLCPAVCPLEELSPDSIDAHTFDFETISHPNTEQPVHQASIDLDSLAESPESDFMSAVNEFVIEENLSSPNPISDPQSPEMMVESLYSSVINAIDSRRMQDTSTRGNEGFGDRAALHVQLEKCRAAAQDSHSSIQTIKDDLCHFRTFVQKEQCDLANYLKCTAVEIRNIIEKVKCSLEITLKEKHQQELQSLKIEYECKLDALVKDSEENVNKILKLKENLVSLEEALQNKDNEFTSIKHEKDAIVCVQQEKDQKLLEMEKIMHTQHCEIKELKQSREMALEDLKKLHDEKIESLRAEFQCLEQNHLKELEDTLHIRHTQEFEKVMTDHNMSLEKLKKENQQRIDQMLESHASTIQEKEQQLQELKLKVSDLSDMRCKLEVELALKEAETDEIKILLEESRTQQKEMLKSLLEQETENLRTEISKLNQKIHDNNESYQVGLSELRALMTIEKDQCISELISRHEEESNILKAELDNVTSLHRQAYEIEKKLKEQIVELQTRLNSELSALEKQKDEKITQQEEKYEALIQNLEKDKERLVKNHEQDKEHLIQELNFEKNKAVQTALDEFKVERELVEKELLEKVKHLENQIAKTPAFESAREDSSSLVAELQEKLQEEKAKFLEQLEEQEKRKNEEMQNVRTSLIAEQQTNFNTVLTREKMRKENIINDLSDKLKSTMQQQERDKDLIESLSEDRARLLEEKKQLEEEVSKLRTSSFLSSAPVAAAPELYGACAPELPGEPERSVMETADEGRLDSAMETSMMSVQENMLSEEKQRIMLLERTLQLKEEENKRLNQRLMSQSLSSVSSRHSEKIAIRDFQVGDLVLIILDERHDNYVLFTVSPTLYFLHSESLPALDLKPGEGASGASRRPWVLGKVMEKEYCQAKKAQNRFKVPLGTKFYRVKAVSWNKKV
UniProt Q3UHJ0: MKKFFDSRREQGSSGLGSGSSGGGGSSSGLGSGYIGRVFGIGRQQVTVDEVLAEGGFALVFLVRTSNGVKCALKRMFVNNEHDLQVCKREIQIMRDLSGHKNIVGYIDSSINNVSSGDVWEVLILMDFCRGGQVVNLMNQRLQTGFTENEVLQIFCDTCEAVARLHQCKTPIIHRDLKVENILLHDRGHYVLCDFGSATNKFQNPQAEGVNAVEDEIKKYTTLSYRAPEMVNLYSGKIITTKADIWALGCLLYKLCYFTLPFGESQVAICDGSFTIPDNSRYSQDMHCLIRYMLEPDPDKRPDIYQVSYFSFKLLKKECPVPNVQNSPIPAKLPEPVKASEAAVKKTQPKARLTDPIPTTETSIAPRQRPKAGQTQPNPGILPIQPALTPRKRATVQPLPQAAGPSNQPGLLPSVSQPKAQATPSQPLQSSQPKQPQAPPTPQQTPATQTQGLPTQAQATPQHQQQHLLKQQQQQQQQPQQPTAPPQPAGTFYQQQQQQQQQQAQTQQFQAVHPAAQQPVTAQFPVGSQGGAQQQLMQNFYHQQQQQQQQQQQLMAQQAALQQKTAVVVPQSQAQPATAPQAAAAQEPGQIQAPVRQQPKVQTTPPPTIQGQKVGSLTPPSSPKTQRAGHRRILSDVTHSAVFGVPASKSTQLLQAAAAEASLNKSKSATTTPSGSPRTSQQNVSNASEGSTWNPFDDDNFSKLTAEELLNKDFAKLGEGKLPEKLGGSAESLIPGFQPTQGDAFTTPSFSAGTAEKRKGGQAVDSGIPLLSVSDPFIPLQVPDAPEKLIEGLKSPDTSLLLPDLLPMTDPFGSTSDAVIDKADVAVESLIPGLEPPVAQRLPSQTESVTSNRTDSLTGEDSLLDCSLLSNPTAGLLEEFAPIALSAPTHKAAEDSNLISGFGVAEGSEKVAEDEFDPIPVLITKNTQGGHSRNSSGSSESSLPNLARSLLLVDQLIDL
UniProt Q6P4T0: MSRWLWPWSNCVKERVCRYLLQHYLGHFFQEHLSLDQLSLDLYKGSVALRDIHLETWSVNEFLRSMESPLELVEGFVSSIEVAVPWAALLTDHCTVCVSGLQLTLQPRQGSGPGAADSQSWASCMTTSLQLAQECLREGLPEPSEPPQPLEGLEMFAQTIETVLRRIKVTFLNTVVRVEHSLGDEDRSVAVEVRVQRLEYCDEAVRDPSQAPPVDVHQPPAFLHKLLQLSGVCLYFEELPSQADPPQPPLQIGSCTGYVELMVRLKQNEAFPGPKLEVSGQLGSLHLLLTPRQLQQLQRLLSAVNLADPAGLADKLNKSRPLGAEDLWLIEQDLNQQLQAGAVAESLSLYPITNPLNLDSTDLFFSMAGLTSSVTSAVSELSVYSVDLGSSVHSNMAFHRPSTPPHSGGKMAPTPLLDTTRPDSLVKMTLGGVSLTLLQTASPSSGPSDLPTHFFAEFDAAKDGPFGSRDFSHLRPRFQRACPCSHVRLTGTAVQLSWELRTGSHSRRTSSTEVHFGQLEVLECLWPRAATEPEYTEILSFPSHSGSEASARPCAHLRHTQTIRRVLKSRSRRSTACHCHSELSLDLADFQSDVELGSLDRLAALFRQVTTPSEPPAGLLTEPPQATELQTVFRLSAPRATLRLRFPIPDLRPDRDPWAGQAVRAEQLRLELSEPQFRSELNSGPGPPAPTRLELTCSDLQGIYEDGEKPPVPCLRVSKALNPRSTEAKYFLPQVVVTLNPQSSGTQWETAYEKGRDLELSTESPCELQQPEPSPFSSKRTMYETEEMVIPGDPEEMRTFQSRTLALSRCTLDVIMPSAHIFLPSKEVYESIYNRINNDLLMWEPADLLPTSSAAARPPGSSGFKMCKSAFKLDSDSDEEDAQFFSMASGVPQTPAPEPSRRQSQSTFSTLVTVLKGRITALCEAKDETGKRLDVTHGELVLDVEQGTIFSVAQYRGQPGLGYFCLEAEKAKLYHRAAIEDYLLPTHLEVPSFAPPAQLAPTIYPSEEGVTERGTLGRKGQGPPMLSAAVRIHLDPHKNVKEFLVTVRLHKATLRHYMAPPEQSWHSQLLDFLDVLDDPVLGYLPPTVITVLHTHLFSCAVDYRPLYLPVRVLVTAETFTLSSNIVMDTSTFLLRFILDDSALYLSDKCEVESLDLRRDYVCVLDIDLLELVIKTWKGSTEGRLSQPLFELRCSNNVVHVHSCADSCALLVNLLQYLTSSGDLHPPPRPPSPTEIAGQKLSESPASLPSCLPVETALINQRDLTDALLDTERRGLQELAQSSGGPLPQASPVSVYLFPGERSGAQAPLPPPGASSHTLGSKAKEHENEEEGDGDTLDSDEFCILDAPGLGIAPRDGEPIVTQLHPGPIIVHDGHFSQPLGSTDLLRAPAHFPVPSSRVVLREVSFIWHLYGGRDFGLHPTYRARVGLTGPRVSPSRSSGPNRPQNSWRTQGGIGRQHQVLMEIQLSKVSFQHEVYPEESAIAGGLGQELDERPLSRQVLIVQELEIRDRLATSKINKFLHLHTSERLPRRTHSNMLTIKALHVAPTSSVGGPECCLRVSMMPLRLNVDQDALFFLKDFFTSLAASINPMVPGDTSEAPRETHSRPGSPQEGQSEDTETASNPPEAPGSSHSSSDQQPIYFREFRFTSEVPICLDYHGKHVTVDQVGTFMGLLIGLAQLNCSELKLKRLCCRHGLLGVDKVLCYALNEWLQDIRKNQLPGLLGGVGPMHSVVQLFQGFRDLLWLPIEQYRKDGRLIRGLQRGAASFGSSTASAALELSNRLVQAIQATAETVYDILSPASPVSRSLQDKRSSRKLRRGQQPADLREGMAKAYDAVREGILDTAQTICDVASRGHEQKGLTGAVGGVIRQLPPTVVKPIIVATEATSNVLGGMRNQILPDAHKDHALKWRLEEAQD
UniProt Q9CPX6: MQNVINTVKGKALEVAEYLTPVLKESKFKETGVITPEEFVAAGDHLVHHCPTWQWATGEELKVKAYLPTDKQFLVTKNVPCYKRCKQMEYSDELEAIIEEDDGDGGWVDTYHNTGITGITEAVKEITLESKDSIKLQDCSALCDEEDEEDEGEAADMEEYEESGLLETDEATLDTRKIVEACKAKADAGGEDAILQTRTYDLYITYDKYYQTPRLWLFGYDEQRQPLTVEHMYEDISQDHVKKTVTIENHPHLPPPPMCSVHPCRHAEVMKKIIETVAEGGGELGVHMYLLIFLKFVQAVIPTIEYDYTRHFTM
UniProt Q91VH2: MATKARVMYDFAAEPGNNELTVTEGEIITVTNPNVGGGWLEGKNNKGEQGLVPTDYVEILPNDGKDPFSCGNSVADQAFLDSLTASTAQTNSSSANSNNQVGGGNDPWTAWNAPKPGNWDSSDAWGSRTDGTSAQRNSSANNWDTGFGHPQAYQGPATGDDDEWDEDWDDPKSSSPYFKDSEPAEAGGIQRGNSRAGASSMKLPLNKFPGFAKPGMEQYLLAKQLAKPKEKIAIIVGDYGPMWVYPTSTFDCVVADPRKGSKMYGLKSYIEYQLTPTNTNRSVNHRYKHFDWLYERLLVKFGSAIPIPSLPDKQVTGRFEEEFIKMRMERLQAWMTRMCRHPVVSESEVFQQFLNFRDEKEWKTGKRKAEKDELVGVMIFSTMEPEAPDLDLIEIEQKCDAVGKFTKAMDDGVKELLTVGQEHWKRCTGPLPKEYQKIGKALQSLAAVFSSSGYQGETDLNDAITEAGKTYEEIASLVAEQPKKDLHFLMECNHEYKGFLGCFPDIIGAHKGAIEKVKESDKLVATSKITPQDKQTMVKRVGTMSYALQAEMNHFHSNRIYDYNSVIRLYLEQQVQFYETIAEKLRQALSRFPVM
UniProt P22892: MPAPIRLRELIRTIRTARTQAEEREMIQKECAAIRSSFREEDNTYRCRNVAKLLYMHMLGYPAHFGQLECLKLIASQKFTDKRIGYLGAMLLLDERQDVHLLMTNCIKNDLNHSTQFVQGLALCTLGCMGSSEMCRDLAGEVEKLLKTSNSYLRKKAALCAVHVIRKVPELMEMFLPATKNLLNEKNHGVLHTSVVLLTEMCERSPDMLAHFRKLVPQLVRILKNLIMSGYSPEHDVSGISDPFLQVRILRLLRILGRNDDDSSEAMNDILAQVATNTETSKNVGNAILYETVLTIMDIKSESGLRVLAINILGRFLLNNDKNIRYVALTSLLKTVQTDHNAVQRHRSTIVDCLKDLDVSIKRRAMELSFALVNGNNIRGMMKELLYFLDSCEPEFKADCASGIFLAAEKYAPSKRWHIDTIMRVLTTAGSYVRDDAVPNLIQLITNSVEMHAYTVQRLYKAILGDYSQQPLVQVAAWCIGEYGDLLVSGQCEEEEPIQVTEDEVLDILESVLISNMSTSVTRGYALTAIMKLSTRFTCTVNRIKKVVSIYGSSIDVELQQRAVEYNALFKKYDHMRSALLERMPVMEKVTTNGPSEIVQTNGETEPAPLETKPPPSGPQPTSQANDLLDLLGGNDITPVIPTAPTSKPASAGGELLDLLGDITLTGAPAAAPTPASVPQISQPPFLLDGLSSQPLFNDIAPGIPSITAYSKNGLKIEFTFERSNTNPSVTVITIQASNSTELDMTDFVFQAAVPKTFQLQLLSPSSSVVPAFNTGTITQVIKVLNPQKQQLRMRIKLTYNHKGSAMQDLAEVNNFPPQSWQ

Consider 12 molecules from doi:10.1101/769059.

One experiment deals with T1, K130R GFP-ATG5 (mouse) (UniProt Q99J83).
T1 sequence: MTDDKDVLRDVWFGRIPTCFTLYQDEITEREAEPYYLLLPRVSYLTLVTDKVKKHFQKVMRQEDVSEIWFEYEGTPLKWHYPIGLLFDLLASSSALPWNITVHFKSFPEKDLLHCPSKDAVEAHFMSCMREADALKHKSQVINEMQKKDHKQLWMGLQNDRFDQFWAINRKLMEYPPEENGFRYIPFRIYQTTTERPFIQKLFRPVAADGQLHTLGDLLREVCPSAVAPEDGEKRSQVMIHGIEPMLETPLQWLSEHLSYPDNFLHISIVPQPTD
The experiment in a line: affinity purification with mass spectrometry.

Experiment [1] has as its target wild-type GFP-ATG5 (mouse) (UniProt Q99J83). The experiment in a line: affinity purification with mass spectrometry.

Regarding RBCC1 (from UniProt Q9ESK9 1-1588), the binding entry was “no binding” in the experiment with K130R GFP-ATG5 (mouse) and “binds” in experiment [1]. As to SYNJ1 (from UniProt Q8CHC4 1-1574), the binding result in experiment [1] was “binds”. In the case of “AP2-asssociated kinase 1 (from UniProt Q3UHJ0 1-959)”, the binding result is reported as “no binding” in the experiment with K130R GFP-ATG5 (mouse) and “binds” in experiment [1]. Turning to “dynamin binding protein (from UniProt Q6TXD4 1-1580)”, the binding entry is given as “no binding” with K130R GFP-ATG5 (mouse) and “binds” in experiment [1]. Regarding ATG2A (from UniProt Q6P4T0 1-1914), the binding result in the experiment with K130R GFP-ATG5 (mouse) was “binds”. As for ATG3 (from UniProt Q9CPX6 1-314), the binding result in experiment [1] is given as “binds”.

In the case of “sorting nexin 9 (from UniProt Q91VH2 1-595)”, the binding entry in the experiment with K130R GFP-ATG5 (mouse) was “no binding”. For the molecule “clathrin adaptor subunit AP1 G1 (from UniProt P22892 1-822)”, the binding entry in experiment [1] was “binds”.

For the molecule “insulin-like growth factor 2 receptor (from UniProt Q07113 36-2483)”, the binding result in experiment [1] is reported as “binds”.

B1: PICALM (protein, UniProt Q7M6Y3 1-660)
chain: MSGQSLTDRITAAQHSVTGSAVSKTVCKATTHEIMGPKKKHLDYLIQCTNEMNVNIPQLADSLFERTTNSSWVVVFKSLITTHHLMVYGNERFIQYLASRNTLFNLSNFLDKSGLQGYDMSTFIRRYSRYLNEKAVSYRQVAFDFTKVKRGADGVMRTMNTEKLLKTVPIIQNQMDALLDFNVNSNELTNGVINAAFMLLFKDAIRLFAAYNEGIINLLEKYFDMKKNQCKEGLDIYKKFLTRMTRISEFLKVAEQVGIDRGDIPDLSQAPSSLLDALEQHLASLEGKKIKDSTAASRATTLSNAVSSLASTGLSLTKVDEREKQAALEEEQARLKALKEQRLKELAKKPHTSLTTAASPVSTSAGGIMTAPAIDIFSTPSSSNSTSKLPNDLLDLQQPTFHPSVHAMSAAPQGASTWGDPFSATLDAVEDAIPSLNPFLTKSSGDVHLPIASDVSTFTTRTPTHEMFVGFSPSPVAQPHSSAGLNVDFESVFGNKSTNVAVDSGGFDELGGLLKPTVASQNQSLPVAKLPPNKLVSDDLDSSLANLVGNLGIGNGTTKNDVSWSQPGEKKLTGGSNWQPKVAPTTAWSAATMNGMHFPQYAPPVMAYPATTPTGMIGYGIPPQMGSVPVMTQPTLIYSQPVMRPPNPFGPVSGAQIQFM
In the case of B1, the binding entry in experiment [1] was “binds”.

B2: huntingtin interacting protein 1 (protein, UniProt Q8VD75 1-1029)
chain: MDRMASSMKQVSNPLPKVLSRRGVGAGMEAAERESFERTQTVSVNKAINTQEVAVKEKHARTCILGTHHEKGAQTFWSVVNRLPLSSNAMLCWKFCHVFHKLLRDGHPNVLKDSLRYKNELSDMSRMWGHLSEGYGQLCSIYLKLLRTRMEYHTKNPRFPGNLQMSDRQLDEAGESDVNNFFQLTVEMFDYLECELNLFQTVFNSLDMSRSVSVTTAGQCRLAPLIQVILDCSHLYDYTVKLLFKLHSCLPADTLQGHRDRFMEQFTKLKDLFQRSSNLQYFKRLIQIPQLPENPPNFLRASALSEHISPVVVIPAEVSSPDSEPVLEKDDLMDMDASQQTLFDNKFDDVFGSSLSSDPFNFNNQNGVNKDEKDHLIERLYREISGLTGQLDNMKIESQRAMLQLKGRVSELEAELAEQQHLGRQAMDDCEFLRTELDELKRQREDTEKAQRSLTEIERKAQANEQRYSKLKEKYSELVQNHADLLRKNAEVTKQVSVARQAQVDLEREKKELADSFARTQEQQDVLENLKHELATSRQELQVLHSNLETSAQSEAKWLTQIAELEKEQGSLATVAAQREEELSALRDQLESTQIKLAGAQESMCQQVKDQRKTLLAGIRKAAEREIQEALSQLEEPTLISCAGSTDHLLSKVSSVSSCLEQLEKNGSQYLACPEDISELLHSITLLAHLTGDTIIQGSATSLRAPPEPADSLTEACRQYGRETLAYLSSLEEEGTMENADVTALRNCLSRVKTLGEELLPRGLDIKQEELGDLVDKEMAATSAAIEAATTRIEEILSKSRAGDTGVKLEVNERILGSCTSLMQAIKVLVVASKDLQKEIVESGRGTASPKEFYAKNSRWTEGLISASKAVGWGATIMVDAADLVVQGKGKFEELMVCSREIAASTAQLVAASKVKANKGSLNLTQLQQASRGVNQATAAVVASTISGKSQIEETDSMDFSSMTLTQIKRQEMDSQVRVLELENDLQKERQKLGELRKKHYELAGVAEGWEEGTEASPSTVQEAIPDKE
On to B2, for which the binding result with K130R GFP-ATG5 (mouse) is “no binding”; in experiment [1], “binds”.

B3: ULK1 (protein, UniProt O70405 1-1051)
chain: MEPGRGGVETVGKFEFSRKDLIGHGAFAVVFKGRHREKHDLEVAVKCINKKNLAKSQTLLGKEIKILKELKHENIVALYDFQEMANSVYLVMEYCNGGDLADYLHTMRTLSEDTVRLFLQQIAGAMRLLHSKGIIHRDLKPQNILLSNPGGRRANPSNIRVKIADFGFARYLQSNMMAATLCGSPMYMAPEVIMSQHYDGKADLWSIGTIVYQCLTGKAPFQASSPQDLRLFYEKNKTLVPAIPRETSAPLRQLLLALLQRNHKDRMDFDEFFHHPFLDASTPIKKSPPVPVPSYPSSGSGSSSSSSSASHLASPPSLGEMPQLQKTLTSPADAAGFLQGSRDSGGSSKDSCDTDDFVMVPAQFPGDLVAEAASAKPPPDSLLCSGSSLVASAGLESHGRTPSPSPTCSSSPSPSGRPGPFSSNRYGASVPIPVPTQVHNYQRIEQNLQSPTQQQTARSSAIRRSGSTTPLGFGRASPSPPSHTDGAMLARKLSLGGGRPYTPSPQVGTIPERPSWSRVPSPQGADVRVGRSPRPGSSVPEHSPRTTGLGCRLHSAPNLSDFHVVRPKLPKPPTDPLGATFSPPQTSAPQPCPGLQSCRPLRGSPKLPDFLQRSPLPPILGSPTKAGPSFDFPKTPSSQNLLTLLARQGVVMTPPRNRTLPDLSEASPFHGQQLGSGLRPAEDTRGPFGRSFSTSRITDLLLKAAFGTQASDSGSTDSLQEKPMEIAPSAGFGGTLHPGARGGGASSPAPVVFTVGSPPSGATPPQSTRTRMFSVGSSSSLGSTGSSSARHLVPGACGEAPELSAPGHCCSLADPLAANLEGAVTFEAPDLPEETLMEQEHTETLHSLRFTLAFAQQVLEIAALKGSASEAAGGPEYQLQESVVADQISQLSREWGFAEQLVLYLKVAELLSSGLQTAIDQIRAGKLCLSSTVKQVVRRLNELYKASVVSCQGLSLRLQRFFLDKQRLLDGIHGVTAERLILSHAVQMVQSAALDEMFQHREGCVPRYHKALLLLEGLQHTLTDQADIENIAKCKLCIERRLSALLSGVYA
As for B3, the binding result in the experiment with K130R GFP-ATG5 (mouse) is “binds”.
